Experimental findings from paper PMC9164399 are described below.

Amino acid sequences for entries named in this document (tags omitted).
UniProt O14744: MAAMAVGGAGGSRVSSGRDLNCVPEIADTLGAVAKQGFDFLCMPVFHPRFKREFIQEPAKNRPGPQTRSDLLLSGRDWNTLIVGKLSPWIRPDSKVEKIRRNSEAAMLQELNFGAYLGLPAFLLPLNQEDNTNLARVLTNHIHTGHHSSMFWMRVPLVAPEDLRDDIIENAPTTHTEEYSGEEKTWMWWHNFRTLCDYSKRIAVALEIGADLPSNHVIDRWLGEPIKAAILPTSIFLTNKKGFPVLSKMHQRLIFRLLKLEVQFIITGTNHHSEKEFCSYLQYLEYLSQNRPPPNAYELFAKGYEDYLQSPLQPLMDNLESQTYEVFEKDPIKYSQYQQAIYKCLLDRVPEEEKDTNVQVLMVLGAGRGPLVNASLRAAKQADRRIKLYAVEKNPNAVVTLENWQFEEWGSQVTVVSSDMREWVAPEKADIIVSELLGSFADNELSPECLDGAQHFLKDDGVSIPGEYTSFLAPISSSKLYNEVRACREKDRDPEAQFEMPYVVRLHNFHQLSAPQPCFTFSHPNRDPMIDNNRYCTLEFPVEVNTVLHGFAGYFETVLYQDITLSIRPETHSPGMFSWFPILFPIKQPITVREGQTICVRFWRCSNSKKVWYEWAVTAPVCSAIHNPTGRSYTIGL

Experiment [1] has as its target Flag-PRMT5 (human) (UniProt O14744). Put plainly: co-IP; domain mapping: a Flag- or HA-tagged full-length protein co-expressed with Myc-tagged truncations in HEK293T cells; immunoprecipitation with Flag, HA or Myc antibody, western blot. (Immunoblotting shows a protein as a band on a membrane.)
For experiment [2] the target is unchanged. Put plainly: co-IP; one Flag-tagged and two HA-tagged proteins of Slug, PRMT5 and LSD1 co-expressed in HEK293T cells; immunoprecipitation with appropriate antibodies, western blot.
Experiment [3] deals with Protein arginine methyltransferase 5 (endogenous) (human (endogenous in HEK293T, MDA-MB-231, SUM159 and Hs578T)) (UniProt O14744). Put plainly: co-IP; endogenous proteins; lysates of MDA-MB-231, SUM159 or Hs578T cells immunoprecipitated with antibodies against Slug, LSD1 or PRMT5, Protein G magnetic beads, 4 °C, lysis buffer 50 mM Tris-HCl pH 8.0, 0.2% NP-40, 150 mM NaCl, 2 mM EDTA; immunoblot.

These are yes or no findings as the source states them, for the method shown. In cells and extracts the contact can be indirect. Some binding calls cover weakened binding; strength is not graded here. For part of these data: Sequences can lack the tags named with a protein.

B1: Myc-tagged C-terminal Slug (128-268 aa) (domain or fragment, UniProt O43623 128-268)
chain: FQCNLCNKTYSTFSGLAKHKQLHCDAQSRKSFSCKYCDKEYVSLGALKMHIRTHTLPCVCKICGKAFSRPWLLQGHIRTHTGEKPFSCPHCNRAFADRSNLRAHLQTHSDVKKYQCKNCSKTFSRMSLLHKHEESGCCVAH
Consider B1, for which the binding result in the experiment with Flag-PRMT5 (human) [1] was “binds”.

B2: HA-Slug (protein, UniProt O43623 1-268)
chain: MPRSFLVKKHFNASKKPNYSELDTHTVIISPYLYESYSMPVIPQPEILSSGAYSPITVWTTAAPFHAQLPNGLSPLSGYSSSLGRVSPPPPSDTSSKDHSGSESPISDEEERLQSKLSDPHAIEAEKFQCNLCNKTYSTFSGLAKHKQLHCDAQSRKSFSCKYCDKEYVSLGALKMHIRTHTLPCVCKICGKAFSRPWLLQGHIRTHTGEKPFSCPHCNRAFADRSNLRAHLQTHSDVKKYQCKNCSKTFSRMSLLHKHEESGCCVAH
As to B2, in the experiment with Flag-PRMT5 (human) [2], the binding result was “binds”.

B3: Slug (endogenous) (protein, UniProt O43623 1-268)
chain: B2 chain
B3: the binding result in experiment [3] is recorded as “binds”.
